Results as given in patent publication US6548042B2, “Bis-phosphonate compounds” (priority 2000, dated 2003).

Tests used:
[1] = Dose estimates in reference man calculated with MIRDOSE (3.1)
[2] = administration of 1.00 GBq; cited from earlier work

With O=P(O)(O)C(O)(Cc1cccc([131I])c1)P(=O)(O)O [46a, 1-hydroxy(m-[^131I and ^125I]-iodophenyl)-ethylidene-1,1-bisphosphonic acid] the “Estimated dose to bone surface” value ([1]; administration of 1.00 GBq) was 7.44 Gy, the “Estimated dose to the bone marrow” value ([1]; administration of 1.00 GBq) was 1.10 Gy and the Tumour dose ([1]; assuming lesion to healthy bone dose ratio of about 10:1) was 74 Gy/GBq.
For ^153Sm-EDTMP, the “Dose to bone surface” value [2] is listed as 5.3-8.8 Gy, the “Dose to the bladder” value [2] is listed as 0.4-1.3 Gy and the “Dose to the bone marrow” value [2] is listed as 1.20-2.00 Gy.
